Measured values reported in paper PMC7862700.
Only a part is listed here, and it is no random draw. At the low end of the ranking the order means little.

Each sequence was assayed against SPI1 (UniProt P17947) (assay: DAPPL (digital affinity profiling via proximity ligation, sequencing)). Settings: 10 mM Tris-HCl pH 7.5, 50 mM NaCl, 1 mM DTT, 4% glycerol, room temperature, 30 min; GST-TFs on glutathione beads, 16-mer random dsDNA library, 0.1% …; high values mean tight binding; double strand, one strand shown; scale: fold enrichment (6-mer frequency, TF over GST control).

Sequence | binding signal
GTCCTA | 1.16
ATCAGC | 0.943
TCTCCC | 1.47
AAGTAC | 1.62
ATCATC | 1.14
AGCTCC | 1.25
CGGCTT | 1.17
AACATA | 1.21
AACTAA | 1.38
CGACTC | 1.35
GAAGCA | 1.28
TAATAA | 1.09
CTGCCA | 1.24
CGCTTT | 1.59
GAAAAG | 1.3
TTCCAG | 1.05
CTTTTT | 1.88
ACACGA | 1.07

Sequence | binding signal
CTCCTT | 1.71
GGTATT | 1.16
TTACGA | 1.09
CACTTC | 5.56
TCCGAC | 1.37
ACACTT | 1.95
ATCTCC | 1.37
ATGCAA | 1.2
TTCAGC | 1.18
CTATTC | 1.29
ACCATA | 1.13
CTTCTA | 1.41
CTCAGG | 1
AATGCC | 1.06
CACTCG | 1.01
CTCAAA | 1.29
TAACTC | 1.18

Some of the entries above, set out differently.

| Sequence | binding signal |
| --- | --- |
| GTCCTA | 1.16 |
| ATCAGC | 0.943 |
| TCTCCC | 1.47 |
| AAGTAC | 1.62 |
| ATCATC | 1.14 |
| AGCTCC | 1.25 |
